In the supplement of paper PMC12764529:
± gives the half width of the 95% confidence interval. The two proteases of the assay disagree for many of these sequences.

What was measured:
[1] = folding stability dG unfold from chymotrypsin proteolysis; higher = more stable
Summary of the method: (§1)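 Digests were run with trypsin and chymotrypsin at 11 concentrations in threefold dilutions, plus a no-protease condition, on designed mini-proteins in a PA-tagged cDNA display construct. The mini-proteins were under 80 residues, had no cysteine, and were kept only when AlphaFold2 dimer inter-PAE was above 15. After sequencing, Bayesian fitting of the counts gave K50, from which unfolding free energy was derived against a sequence-predicted unfolded-state K50 and a shared folded-state K50, per protease or combined.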

[2] = folding stability dG unfold from trypsin proteolysis; higher = more stable
Summary of the method: as §1

[3] = folding stability dG unfold (combined trypsin and chymotrypsin); higher = more stable
Summary of the method: as §1

| Sequence | folding stability dG unfold [1] [kcal/mol] | folding stability dG unfold [2] [kcal/mol] | folding stability dG unfold [3] [kcal/mol] |
| --- | --- | --- | --- |
| SAGGSAGGSAKMTAEELAKKLAEELEKKTGLKVKKVTVEYDKETNKVTITVEVDGKTYTIELSAGGSAGGSA [r18_145_TrROS_Hall] | 4.31 ± 0.14 | 2.07 ± 0.13 | 3.92 ± 0.18 |
| SAGGSAGGSAMEINEIVKETAKKGKNLTITVKLPDGSTVTITVTPDEDVPEDLEVLEVTVKSAGGSAGGSAG [r3_421_JUSTAS] | 1.78 ± 0.038 | 0.344 ± 0.05 | 1.4 ± 0.056 |
| KTKTIVINAKDLTEEQLRELLKKLGVSEEDVEVSEDGKTVVIKIDGVTIVIVASPPKPVVKPDDPEAKKAAS [r1_57_TrROS_Hall] | 1.75 ± 0.085 | 1.27 ± 0.051 | 1.61 ± 0.12 |
| SAGGSGMMLEEGVGVDPTTGELHRFTYLREPERPPVEVTVTTTTVVYTTPDGTTVTVTTTTTLEGGSAGGSA [r2_326_JUSTAS] | 0.786 ± 0.27 | 0.671 ± 0.047 | 0.789 ± 0.13 |
| EPIIPDEKDKPLLLKVLSVEVDPEIYPLPGPKGPPVLKVKVKVKMKVLAYTENKPVEKEYTFTLTFYFPPKS [r1_112_TrMRF] | 5.65 ± 0.37 | 3.09 ± 0.27 | 5.16 ± 0.45 |
| SAGMTPEELRALARALLDAARAAGLREVTLTLRMSPEEVEALARALPPDVRIERLENGELRLTVRLPPASAG [r5_268_TrROS_Hall] | 4.353 ± 0.031 | 0.756 ± 0.15 | 3.99 ± 0.065 |
| SAGGMADEELANMSLEEVIAAVKEAGAKTVTVTFPDGSTLTIDLGDDGVVTVTLTTPPGEKETFEIPSAGGS [r8_51_TrMRF] | 2.73 ± 0.088 | 2.34 ± 0.17 | 2.59 ± 0.11 |
| SAGGSAKKKTYTLKIRIYIYNENGEKIKEIEIEIKVKTKEEALEAIKKLIEELEKKGYKIEKIEIESAGGSA [r15_1054_TrROS_Hall] | 5.45 ± 0.37 | 2.98 ± 0.23 | 5.06 ± 0.65 |
| SAGGSAMPDMTAEELAAEVAKKLPPGEKVLIKIRNKNGETKTFELGEDISDLPADEVTEIEIEVLPSAGGSA [r15_50_TrROS_Hall] | 1.05 ± 0.036 | 0.248 ± 0.073 | 0.781 ± 0.054 |
| SAGGSAGGSAGKQPIEMWFMFPNGVAIVLRIKVDPPSPKAKIDAIEVVPVRDPDNGKWRFSAGGSAGGSAGG [r11_919_TrROS] | 1.85 ± 0.1 | 0.566 ± 0.11 | 1.38 ± 0.14 |
| SELRDMTAEELAKLLAEELGIEEVKVTVEREGDTLTITIEVRDKETGETYTLRLRVTRRPDGSLLIEVERSA [r9_1042_TrROS_Hall] | 5.25 ± 0.059 | 2.91 ± 0.083 | 4.85 ± 0.071 |
| SAGGSAGGKKPKVKTVTLTITREDGKTYTITYNAETGEITIEVNGKTITLSVEDLKNLTITIKPSAGGSAGG [r6_939_TrROS_Hall] | 4.74 ± 0.16 | 1.77 ± 0.19 | 4.22 ± 0.29 |
| SAGGSAGGSIEELAKKTNIIEVKVTEFPNPKFKKAFIVYKNPKENKYKKGIYIFYDKKDGKLESAGGSAGGS [r12_133_TrMRF] | 0.544 ± 0.43 | -0.185 ± 0.35 | 0.313 ± 0.23 |
| SAGGSAFRIKIEGPDGVTVTIPMKSPEDIAEQLKKFFGYRITDVKWKRDENGHNYIEIRIRAPPGASAGGSA [r15_447_TrROS] | 5.13 ± 0.24 | 3.08 ± 0.3 | 3.82 ± 0.68 |
| SLSEEEAKDNPEEANEKMQPPPVPPIPLPVPIRNPDNKQEFPAPFEIRTLPNHLEFRFPGNGKPFPVPIDSA [r9_548_TrROS] | 2.87 ± 0.11 | 2.53 ± 0.24 | 2.63 ± 0.28 |
| SAGGSAGGSAGGKLTLDKNGNLTVTKEAKVTVETEETETETTTTTTTTTTTTTTLPEGLSAGGSAGGSAGGS [r10_383_TrROS_Hall] | 1.23 ± 0.073 | -1.2 ± 0.48 | 0.829 ± 0.19 |
| SAKMVVLKAYFKGDGDEIKEIADAIDFPYTIEKIPDYPDYYIATFVFPTEEKAPEWEKALKEKGYIVEGSAG [r14_745_TrMRF] | 2.48 ± 0.037 | 1.88 ± 0.04 | 2.25 ± 0.049 |
| SAGGSAGGSAGMTITKTEDGTYRLTLTVTETLPNGSTVTRTVTLTVPLEDAEEILAALPPSAGGSAGGSAGG [r11_505_TrROS_Hall] | 2.87 ± 0.032 | 2.52 ± 0.11 | 2.72 ± 0.089 |

| Sequence | folding stability dG unfold [1] [kcal/mol] | folding stability dG unfold [2] [kcal/mol] | folding stability dG unfold [3] [kcal/mol] |
| --- | --- | --- | --- |
| SAGAREFELEAEFFLPDGYRVRVRVRLRVLPDGSVRAEPEVEIEPVPVPPPPRPVPVDPDDPDRPEAFSAGG [r19_12_TrMRF] | 3.26 ± 0.072 | 1.14 ± 0.16 | 2.74 ± 0.4 |
| SAGGSAGGSMPAGAPVEVTLVVPLPDGPLLVLRAVVRRLPDGSAVVVAVEPGVATSLEELLRHSAGGSAGGS [r12_386_TrMRF] | 1.702 ± 0.016 | -1.2 ± 0.77 | 1.22 ± 0.059 |
| SAGMRVVLTLPLPDLVALAERLGYAPEDMTLEEFAERLEELLPGARVEATFDPETGEVTLVLELPPELGSAG [r5_264_TrMRF] | 3.53 ± 0.074 | 0.892 ± 0.08 | 2.99 ± 0.1 |
| SAGGSAKTITIELEIKNPETNETYRIKAEIVSVDKEKNVIVVKIEIENKNGEKYEFTFVIKDIEELSAGGSA [r15_828_TrROS_Hall] | 4.46 ± 0.12 | 2.35 ± 0.14 | 4.27 ± 0.2 |
| SAGGSAGKIEIPLPELGEVREEPVPDTVRIEVRFPDGRVLEATVLKDDTIEIREKGTGKLVATLPASAGGSA [r15_656_TrMRF] | 1.39 ± 0.043 | 1.44 ± 0.058 | 1.44 ± 0.12 |
| SAGGSKAKILEINPDGEITIVVEFEPGKYIVIPVHPEFVNNPENIEKLFNFLKKIFESLGFEDIEGSAGGSA [r2_249_TrMRF] | 3.87 ± 0.1 | 1.16 ± 0.034 | 3.43 ± 0.16 |
| KYRTIMIPYKDMTPEQLRDFLQDLGLTWEDLEIEREGDYYTIKIPNVKITIMPPPPKPKVSPNDPEDAKEAS [r1_57_TrROS] | 3.36 ± 0.095 | 1.14 ± 0.065 | 2.51 ± 0.23 |
| SAKITITKNKNGYYAIEIDLPKDVKEIVVKNKKTNKTVKIIKKNGKLYIFAKTKEQIEEILKAILEGKPISA [r9_515_TrROS_Hall] | 4.51 ± 0.056 | 2.45 ± 0.056 | 3.96 ± 0.12 |
| SADLAAELEEGGFVVTITETVVSVTPQTLEKDSFVVEKDVVTTITVTPPPVAPPPPDPANLRDAAGAPVSAG [r14_569_JUSTAS] | 1.01 ± 0.023 | -0.0411 ± 0.041 | 0.798 ± 0.084 |
| SPPVAAAKKLAEELNAEKVEVKVEKRAEPDGPYEFYVAEARLYVPEEGKVYRVRIRFYPNGEFEIEIEPESA [r9_724_TrMRF] | 3.53 ± 0.1 | 1.4 ± 0.17 | 3.05 ± 0.2 |
| SDADIKVQVFGNFIMIQIYPGAKIKIKIKMPGKKHEHEVKVPPGEPTTIMIPLPPGMPPDWKIEDIEIKGSA [r9_1152_TrROS] | 4.43 ± 0.33 | 1.27 ± 0.1 | 3 ± 0.62 |
| SAGGSAGGSAGGSSSSKTVSTTDTTVPITTTTTPGGSPTVSTTRTDPTSSGPVTTTTTAPSAGGSAGGSAGG [r11_305_JUSTAS] | 1.32 ± 0.039 | -0.758 ± 0.079 | 0.826 ± 0.12 |
| SKKTLTFKNPETGVTVTITFDEETGTITITVTLPNGETVTAEMEVKDGKITITLYNKNGEKVAEFEFELPSA [r9_665_TrROS_Hall] | 5.12 ± 0.33 | 2.91 ± 0.59 | 5.12 ± 0.49 |
| SAMIEIEVGGKKITITYNKETNEYTITIYDKKTGKKVTITIPKENKNLTLEEILKKIKEAIKEGKKVKISAG [r14_157_TrROS_Hall] | 5.04 ± 0.12 | 1.75 ± 0.058 | 4.62 ± 0.23 |
| SAGGSADKNKPKKKVEEKEFYVKIPFKSKEEALAYVEEIKKKFPGAKVEIVSLSPDGIAIIKITLKSAGGSA [r15_387_TrMRF] | 3.82 ± 0.16 | 1.65 ± 0.058 | 3.53 ± 0.19 |
| SAGGSAGGSAGYFLAEFEIKIKFRNPDNGQWMDMTIRIPVYIVPPKPTPKRDPNGDWKPDSAGGSAGGSAGG [r11_307_TrROS] | 3.99 ± 0.13 | 1.47 ± 0.098 | 3.41 ± 0.24 |
| SAGKDGDPPKRVRIKFKIPLPGGKLYEVTQTFYPNGSVHVSIRFPNGWMLSAWIPPDGDIEIKIMPIKKSAG [r5_168_TrROS] | 4.3 ± 0.14 | 3.37 ± 0.21 | 4 ± 0.23 |

Copied from the list.
Under folding stability dG unfold [3] [kcal/mol], SPPVAAAKKLAEELNAEKVEVKVEKRAEPDGPYEFYVAEARLYVPEEGKVYRVRIRFYPNGEFEIEIEPESA [r9_724_TrMRF] reads 3.05 ± 0.2
Under folding stability dG unfold [1] [kcal/mol], SAGGSADKNKPKKKVEEKEFYVKIPFKSKEEALAYVEEIKKKFPGAKVEIVSLSPDGIAIIKITLKSAGGSA [r15_387_TrMRF] reads 3.82 ± 0.16
